According to paper PMC12863303:
No constants are given. Whether binding was seen depends on the method and setting. Binding seen in cells or lysates may run through a third protein. Some entries that bind do so weakly or less than the wild type. Sequences can lack the tags named with a protein.

Amino acid sequences for entries named in this document (tags omitted).
UniProt P0DMV8: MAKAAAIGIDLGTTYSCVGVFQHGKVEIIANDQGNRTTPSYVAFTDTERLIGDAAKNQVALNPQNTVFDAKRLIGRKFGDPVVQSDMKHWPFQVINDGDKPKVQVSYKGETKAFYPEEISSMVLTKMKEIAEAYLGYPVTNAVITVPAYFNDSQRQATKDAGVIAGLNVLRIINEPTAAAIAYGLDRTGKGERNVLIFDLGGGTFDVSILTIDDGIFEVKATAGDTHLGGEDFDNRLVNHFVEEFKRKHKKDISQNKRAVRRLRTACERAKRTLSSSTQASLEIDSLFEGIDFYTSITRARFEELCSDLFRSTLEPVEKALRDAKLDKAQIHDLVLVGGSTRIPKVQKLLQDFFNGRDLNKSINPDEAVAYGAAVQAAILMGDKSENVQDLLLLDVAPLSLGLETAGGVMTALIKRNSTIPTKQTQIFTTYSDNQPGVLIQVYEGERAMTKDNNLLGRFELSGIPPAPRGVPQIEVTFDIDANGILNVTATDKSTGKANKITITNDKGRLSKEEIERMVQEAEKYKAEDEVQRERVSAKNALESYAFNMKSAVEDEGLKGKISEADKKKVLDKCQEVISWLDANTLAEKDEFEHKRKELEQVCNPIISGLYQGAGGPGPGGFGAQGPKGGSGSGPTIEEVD

B1: Myc epitope-tagged NONO (protein, UniProt Q15233 1-471)
chain: MQSNKTFNLEKQNHTPRKHHQHHHQQQHHQQQQQQPPPPPIPANGQQASSQNEGLTIDLKNFRKPGEKTFTQRSRLFVGNLPPDITEEEMRKLFEKYGKAGEVFIHKDKGFGFIRLETRTLAEIAKVELDNMPLRGKQLRVRFACHSASLTVRNLPQYVSNELLEEAFSVFGQVERAVVIVDDRGRPSGKGIVEFSGKPAARKALDRCSEGSFLLTTFPRPVTVEPMDQLDDEEGLPEKLVIKNQQFHKEREQPPRFAQPGSFEYEYAMRWKALIEMEKQQQDQVDRNIKEAREKLEMEMEAARHEHQVMLMRQDLMRRQEELRRMEELHNQEVQKRKQLELRQEEERRRREEEMRRQQEEMMRRQQEGFKGTFPDAREQEIRMGQMAMGGAMGINNRGAMPPAPVPAGTPAPPGPATMMPDGTLGLTPPTTERFGQAATMEGIGAIGGTPPAFNRAAPGAEFAPNKRRRY
B2: endogenous NONO (protein, UniProt Q15233 1-471)
chain: B1 chain

Molecular target: GFP–Hsp70 (HSPA1A) (human) (UniProt P0DMV8)
Test: co-IP; HeLa cells co-transfected with Myc-NONO and GFP or GFP–Hsp70; untreated or SFN for 6 h; RIPA lysate; GFP-Trap Agarose 1 h at 4°C; wash 10 mM Tris-HCl pH 7.5, 150 mM NaCl, 0.05% NP-40, 0.5 mM EDTA; western blot

Row | binding | Binder
1 | binds | B1
2 | binds | B2
